Source: PMC4132743 (Nucleic Acids Research, 2014)
Changes are numbered by the printed parent chain. The comparison behind a weaker result is the experiment's own reference, which may not be listed here. Tags and fusion partners may be left off the protein sequences shown.

Experiments:
Assay in all cases: fluorescence polarization
Conditions in all cases: Buffer A: 20 mM Tris-HCl pH 7.5, 40 mM NaCl, 5% v/v glycerol, 20 C; FPA 200 nM 5'-FAM DNA, Hill fit; recombinant protein; residues 1-179; protein details: His-MBP removed by TEV; label: 5'-FAM; single-stranded DNA
[1] = molecular target: T1, DnaT R146A (Escherichia coli K12) (UniProt P0A8J2)
T1 sequence (looked up): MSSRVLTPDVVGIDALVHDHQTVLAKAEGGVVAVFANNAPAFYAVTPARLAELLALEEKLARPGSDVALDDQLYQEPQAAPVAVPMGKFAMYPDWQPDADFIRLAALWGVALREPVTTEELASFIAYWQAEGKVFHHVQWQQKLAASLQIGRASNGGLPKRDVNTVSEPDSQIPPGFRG

[2] = molecular target: T2, DnaT Y127A (Escherichia coli K12) (UniProt P0A8J2)
T2 sequence (looked up): T1 sequence (looked up) with Y127A, A146R

[3] = molecular target: T3, DnaT K133A (Escherichia coli K12) (UniProt P0A8J2)
T3 sequence (looked up): T1 sequence (looked up) with K133A, A146R

[4] = molecular target: T4, DnaT F135A (Escherichia coli K12) (UniProt P0A8J2)
T4 sequence (looked up): T1 sequence (looked up) with F135A, A146R

[5] = molecular target: T5, DnaT W128A (Escherichia coli K12) (UniProt P0A8J2)
T5 sequence (looked up): T1 sequence (looked up) with W128A, A146R

[6] = molecular target: T6, DnaT K143A (Escherichia coli K12) (UniProt P0A8J2)
T6 sequence (looked up): T1 sequence (looked up) with K143A, A146R

Measured: binding result

TTTTTTTTTTTTTTTTTTTTTTTTTTTTTT [5F-dT30]
binds more weakly: all assays above
